Test results reported in PMC7473641, “The C-terminal helix of BubR1 is essential for CENP-E-dependent chromosome alignment” (Journal of Cell Science, 2020).

Sequences of proteins named here, by UniProt entry; tags and fusion partners are left off. Residues count along the entry.
UniProt Q02224, residues 2055-2358: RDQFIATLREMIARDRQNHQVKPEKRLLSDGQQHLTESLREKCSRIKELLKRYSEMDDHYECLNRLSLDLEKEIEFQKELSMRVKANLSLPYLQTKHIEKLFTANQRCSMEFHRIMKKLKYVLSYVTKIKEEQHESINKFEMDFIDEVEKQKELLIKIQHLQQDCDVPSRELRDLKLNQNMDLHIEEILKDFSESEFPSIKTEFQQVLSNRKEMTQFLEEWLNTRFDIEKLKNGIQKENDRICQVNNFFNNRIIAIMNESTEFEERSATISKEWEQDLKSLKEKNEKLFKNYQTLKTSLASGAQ
UniProt O60566: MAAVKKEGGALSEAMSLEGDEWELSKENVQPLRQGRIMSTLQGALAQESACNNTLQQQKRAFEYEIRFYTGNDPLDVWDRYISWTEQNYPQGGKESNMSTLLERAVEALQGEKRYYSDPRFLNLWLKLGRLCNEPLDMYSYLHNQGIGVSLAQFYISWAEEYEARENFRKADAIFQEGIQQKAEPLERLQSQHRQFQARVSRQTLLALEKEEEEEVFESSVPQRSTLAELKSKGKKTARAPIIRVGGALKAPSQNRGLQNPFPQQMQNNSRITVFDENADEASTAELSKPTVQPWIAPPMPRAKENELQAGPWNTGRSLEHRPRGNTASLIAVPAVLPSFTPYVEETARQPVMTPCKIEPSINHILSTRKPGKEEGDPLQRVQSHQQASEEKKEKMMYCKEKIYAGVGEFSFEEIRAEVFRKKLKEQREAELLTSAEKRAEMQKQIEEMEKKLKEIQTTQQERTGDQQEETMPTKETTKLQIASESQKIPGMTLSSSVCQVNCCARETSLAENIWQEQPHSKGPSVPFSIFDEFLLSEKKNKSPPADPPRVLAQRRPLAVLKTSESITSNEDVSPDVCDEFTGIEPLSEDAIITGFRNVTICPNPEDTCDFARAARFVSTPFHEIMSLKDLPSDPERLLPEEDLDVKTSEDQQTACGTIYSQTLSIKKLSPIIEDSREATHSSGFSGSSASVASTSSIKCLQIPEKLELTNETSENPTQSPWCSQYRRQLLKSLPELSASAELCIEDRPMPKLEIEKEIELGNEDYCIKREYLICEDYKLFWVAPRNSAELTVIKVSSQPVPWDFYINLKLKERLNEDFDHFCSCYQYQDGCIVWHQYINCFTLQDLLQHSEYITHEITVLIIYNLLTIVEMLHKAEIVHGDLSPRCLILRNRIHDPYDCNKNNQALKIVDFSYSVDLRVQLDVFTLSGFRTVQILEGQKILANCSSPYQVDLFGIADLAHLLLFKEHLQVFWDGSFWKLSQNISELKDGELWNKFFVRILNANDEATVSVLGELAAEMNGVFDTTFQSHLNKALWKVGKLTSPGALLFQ

Target: CENP-E_(2055–2358)–3C cleavage site–6×His bound to Ni-NTA beads (human) (UniProt Q02224)
Assay: affinity purification with mass spectrometry; 600 µg CENP-E 2055-2358-3C-6xHis on Ni-NTA agarose beads, incubated 1 h at 4°C with cleared mitotic HeLa lysate (nocodazole 14 h); eluted with 3C protease; LC-MS/MS; beads alone as control; only the target purified

BubR1 (BUB1B), endogenous (from UniProt O60566 1-1050)
binding: binds

These are yes or no findings as the source states them, for the method shown. In cells and extracts the contact can be indirect. These calls come from enrichment with a bait or labelling near it, and not all partners need be listed.
